# Test results published in PubChem BioAssay AID624297 (National Center for Advancing Translational Sciences (NCATS), 2012).
# The campaign covered roughly 340,000 compounds. About 6,200 (1.8%) were called active. Inconclusive results, whose numbers are uncertain, are shown with a selection of clear calls. Calls follow the shape of the dose curve; as a rule, active = well fitted activation curve with a large enough effect; inconclusive = small, poorly fitted or top-dose-only effect; inactive = no such curve, though single readings can be large or run the other way. Potencies beside an inconclusive call are fits to weak or partial responses and may not hold up.
# Experiment: A quantitative high throughput screen for small molecules that induce DNA re-replication in SW480 colon adenocarcinoma cells. Also: nearly all actives have a fitted effect of over 55% in size. As to re-replication activation: % of control where 0% means no effect.
# Details: Hoechst DNA content imaging, 48 h; re-replication activation: at 46.1 µM (top of the series) unless noted
# Method in brief: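 250 cells/well; 23 nL cpd via pin tool; 48 hr, 37 C, 5% CO2; Hoechst 40 min; imager read of total nuclear intensity, ex 405/em 500-530 nm.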
# Potency is read from the fitted curve at half-maximal effect.
SMILES,re-replication activation,Potency
CC(C)OC(=O)CSc1nnc(CNc2ccc(Cl)cc2)n1C,inactive: 0.43%,–
Cc1cc(=O)oc2c1c(C)nn2-c1cccc(Cl)c1,–,"inconclusive: 2.91 µM [activator, partial curve, poor fit]"
Cc1cc(=O)oc2cc(NC(=O)c3ccc(OC(F)F)cc3)ccc12,–,"inconclusive: 2.06 µM [activator, partial curve, poor fit]"
O=C(Cn1ncc(Cl)c(Cl)c1=O)NC1CCS(=O)(=O)C1 (centres undefined),–,"inconclusive: 29.1 µM [activator, single point]"
COC(=O)CSc1nccc(C)n1,inactive: -1.84%,–
Cc1cc(NC(=O)CSCC(=O)Nc2cc(Cl)ccc2N2CCN(C)CC2)no1,inactive: -4.23%,–
COc1cccc(NC(=O)c2cnc(SCC(=O)NCc3ccc4c(c3)OCO4)n(C)c2=O)c1,–,"inconclusive: 29.1 µM [activator, single point]"
COc1ccc(-c2sc3ccc(N4CCOCC4)cc3c2C#CC2(O)CCCCC2)cc1,–,"inconclusive: 23.1 µM [activator, single point]"
Cc1occc1-c1nc(-c2ccccn2)no1,inactive: 0.216%,–
COC(=O)c1ccc(Cn2cnc3cnccc32)cc1,–,"inconclusive: 7.31 µM [activator, partial curve, poor fit]"
CN(C)CCNC(=O)c1cccc2ccc(-c3ccc(-c4ccccc4)cc3)nc12,–,"inconclusive: 29.1 µM [activator, single point]"
CCCC(=O)Nc1c2c(nn1-c1ccccc1)CSC2,inactive: -33.8%,–
c1ccc(COc2ccccc2CNC23CC4CC(CC(C4)C2)C3)cc1,–,"inconclusive: 18.4 µM [activator, single point]"
O=C(c1ccccc1)c1nn(-c2ccccc2)c(=O)cc1C(F)(F)F,–,"inconclusive: 29.1 µM [activator, single point]"
CCC(=O)NC(c1ccc(C)cc1)c1cc(Cl)c2cccnc2c1O (centres undefined),–,"inconclusive: 6.51 µM [activator, single point]"
O=C(Cn1nc2n(c1=O)-c1ccccc1SC2)N/N=C/c1cccnc1,–,"inconclusive: 29.1 µM [activator, single point]"
CCCN(CCC)Cc1c(C(=O)N/N=C/C(C)=C\c2ccco2)nnn1-c1nonc1N,–,"inconclusive: 23.1 µM [activator, single point]"
CSc1ccc(/C=C/C(=O)NC23CC4CC(CC(C4)C2)C3)cc1,–,"inconclusive: 2.06 µM [activator, full curve, poor fit]"
COc1ccc(C(=O)CNc2ccccc2CO)cc1,–,"inconclusive: 29.1 µM [activator, partial curve, poor fit]"
c1ccc(-n2cnnn2)cc1,inactive: -6.08%,–
CC(C)(C)c1cc(NC(=O)CCSc2nnc3ccccn23)cc(C(C)(C)C)c1,–,"inconclusive: 16.4 µM [activator, single point]"
Cc1cc(C)cc(NC(=O)Cn2ncn3c(cc4ccccc43)c2=O)c1,–,"inconclusive: 29.1 µM [activator, single point]"

# Part of the list above, as tab-separated lines:
SMILES	re-replication activation	Potency
CC(C)OC(=O)CSc1nnc(CNc2ccc(Cl)cc2)n1C	inactive: 0.43%	–
Cc1cc(=O)oc2c1c(C)nn2-c1cccc(Cl)c1	–	inconclusive: 2.91 µM [activator, partial curve, poor fit]
Cc1cc(=O)oc2cc(NC(=O)c3ccc(OC(F)F)cc3)ccc12	–	inconclusive: 2.06 µM [activator, partial curve, poor fit]
O=C(Cn1ncc(Cl)c(Cl)c1=O)NC1CCS(=O)(=O)C1 (centres undefined)	–	inconclusive: 29.1 µM [activator, single point]
COC(=O)CSc1nccc(C)n1	inactive: -1.84%	–
Cc1cc(NC(=O)CSCC(=O)Nc2cc(Cl)ccc2N2CCN(C)CC2)no1	inactive: -4.23%	–
COc1cccc(NC(=O)c2cnc(SCC(=O)NCc3ccc4c(c3)OCO4)n(C)c2=O)c1	–	inconclusive: 29.1 µM [activator, single point]
COc1ccc(-c2sc3ccc(N4CCOCC4)cc3c2C#CC2(O)CCCCC2)cc1	–	inconclusive: 23.1 µM [activator, single point]

# Continued:

SMILES,re-replication activation,Potency
Cc1cc(NC(=O)Cc2c(F)cccc2Cl)no1,–,"inconclusive: 20.6 µM [activator, single point]"
CCN1CCCC1CNC(=O)c1cc2c(-c3ccc(Cl)cc3)nn(C)c2s1 (centres undefined),–,active: 20.6 µM
CCN(CC)c1ccc2c(C)c(CN3CCOCC3)c(=O)oc2c1,–,active: 20.6 µM
O=C(NC1=NCCS1)c1cccc(S(=O)(=O)N2CCc3ccccc32)c1,–,"inconclusive: 20.6 µM [activator, single point]"
CCN(CC)S(=O)(=O)c1ccc(-c2nnc(SC)o2)cc1,inactive: 1.03%,–
CCSc1nc2sc3c(c2c(=O)n1-c1ccc(OC)cc1)CCN(C)C3,–,"inconclusive: 18.4 µM [activator, single point]"
O=C(O)c1nn(Cc2ncc(-c3cccc(Cl)c3)o2)c(=O)c2ccccc12,–,"inconclusive: 4.11 µM [activator, full curve, poor fit]"
Fc1cccc(CSc2nc3ncc(Cl)cc3[nH]2)c1,–,"inconclusive: 23.1 µM [activator, partial curve, poor fit]"
CCOC(=O)C1(CCOC)CCN(C(C)CCc2ccc(OC)cc2)CC1 (centres undefined),–,"inconclusive: 25.9 µM [activator, partial curve, poor fit]"
CN(C)c1ccc(/C=N/NC(=O)C(O)(c2ccccc2)c2ccccc2)o1,–,"inconclusive: 29.1 µM [activator, single point]"
N#Cc1nc(-c2cccc3ccccc23)oc1N1CCCCC1,–,"inconclusive: 11.6 µM [activator, single point]"
CNc1nc(SC)nc(N(C)C#N)n1,inactive: 12.9%,–
Cc1nc([N+](=O)[O-])c(Br)n1CC(=O)c1ccc(F)cc1,–,"inconclusive: 29.1 µM [activator, single point]"
C=CCn1c(SCC(=O)c2ccc(O)c(O)c2)nnc1-c1ccc(C)cc1,inactive: -84.8% [at 9.22 µM],–
Cc1ccc(N=Nc2ccc(O)c3ncccc23)cc1C,–,"inconclusive: 4.11 µM [activator, full curve]"
COc1cc(CCCN2C(=S)NC[C@@H]2CC2CCCCC2)cc(OC)c1OC,–,"inconclusive: 0.259 µM [activator, full curve, poor fit]"
COC(=O)C(CC(C)C)NC(=O)c1ccc(F)cc1 (centres undefined),–,"inconclusive: 29.1 µM [activator, single point]"
COc1ccc(CCn2c(C)cc(C(=O)CSc3nc(N)cc(=O)[nH]3)c2C)cc1,inactive: 11%,–
C/C(=C\c1ccccc1)C(=O)N1CCN(c2cccc(C(F)(F)F)c2)CC1,inactive: -3.15%,–
COc1ccc(C(=O)NCC(=O)NCC(c2ccco2)N(C)C)cc1OC (centres undefined),–,"inconclusive: 6.51 µM [activator, partial curve, poor fit]"
O=C1/C(=C/c2cccs2)SC(=S)N1N1CCOCC1,–,"inconclusive: 25.9 µM [activator, partial curve, poor fit]"
COc1ccccc1/C=C1\Oc2cc(OC(=O)N3CCOCC3)ccc2C1=O,–,"inconclusive: 8.2 µM [activator, partial curve, poor fit]"
